This is an account of results in paper PMC12148940.

Chains of the proteins cited; added tags and fusions are not shown.
UniProt Q13148: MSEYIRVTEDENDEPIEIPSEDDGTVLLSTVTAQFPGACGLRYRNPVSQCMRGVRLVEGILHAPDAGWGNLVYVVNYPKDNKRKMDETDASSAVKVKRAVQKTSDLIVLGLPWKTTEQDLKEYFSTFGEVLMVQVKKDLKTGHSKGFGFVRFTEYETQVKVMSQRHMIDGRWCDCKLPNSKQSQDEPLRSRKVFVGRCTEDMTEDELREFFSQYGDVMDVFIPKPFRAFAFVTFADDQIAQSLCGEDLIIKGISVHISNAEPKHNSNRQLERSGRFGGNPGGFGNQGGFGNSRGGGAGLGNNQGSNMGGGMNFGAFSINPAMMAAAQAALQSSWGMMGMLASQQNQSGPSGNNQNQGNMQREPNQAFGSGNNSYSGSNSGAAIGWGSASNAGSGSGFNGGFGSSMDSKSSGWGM

Results are given in words; binding and its absence hold for the method and conditions named. Binding seen in cells or lysates may run through a third protein. These calls come from enrichment with a bait or labelling near it, and not all partners need be listed. For some of these results: A no says only that the protein was not detected with the bait.

The target in assay [1] is G3BP1 (human (endogenous in neurons made from human fibroblasts or iPSCs)) (UniProt Q13283). The assay is described as follows: condition: only in transdifferentiated (aged) neurons; affinity purification with mass spectrometry; G3BP1 antibody on Dynabeads, same buffers; lysate of transdifferentiated (aged) neurons only.
For assay [2] the target is unchanged. The assay is described as follows: affinity purification with mass spectrometry; G3BP1 antibody on anti-rabbit IgG Dynabeads, ~3 mg lysate protein, 16 h at 4 °C; IP lysis buffer 50 mM Tris-HCl pH 7.4, 150 mM NaCl, 1 mM EDTA, 0.5% IGEPAL-CA630; lysates of iPSC-derived neurons (unstressed or 1 h sodium arsenite) and transdifferentiated neurons compared, n = 2.
Assay [3] deals with TDP-43 (human (endogenous in neurons made from human fibroblasts or iPSCs)) (UniProt Q13148). The assay is described as follows: affinity purification with mass spectrometry; TDP-43 antibody on anti-rabbit IgG Dynabeads, ~3 mg lysate protein, 16 h at 4 °C; IP lysis buffer 50 mM Tris-HCl pH 7.4, 150 mM NaCl, 1 mM EDTA, 0.5% IGEPAL-CA630; lysates of iPSC-derived neurons (unstressed or 1 h sodium arsenite) and transdifferentiated neurons compared, n = 2.

B1: FAF2 (protein, UniProt Q96CS3 1-445)
chain: MAAPEERDLTQEQTEKLLQFQDLTGIESMDQCRHTLEQHNWNIEAAVQDRLNEQEGVPSVFNPPPSRPLQVNTADHRIYSYVVSRPQPRGLLGWGYYLIMLPFRFTYYTILDIFRFALRFIRPDPRSRVTDPVGDIVSFMHSFEEKYGRAHPVFYQGTYSQALNDAKRELRFLLVYLHGDDHQDSDEFCRNTLCAPEVISLINTRMLFWACSTNKPEGYRVSQALRENTYPFLAMIMLKDRRMTVVGRLEGLIQPDDLINQLTFIMDANQTYLVSERLEREERNQTQVLRQQQDEAYLASLRADQEKERKKREERERKRRKEEEVQQQKLAEERRRQNLQEEKERKLECLPPEPSPDDPESVKIIFKLPNDSRVERRFHFSQSLTVIHDFLFSLKESPEKFQIEANFPRRVLPCIPSEEWPNPPTLQEAGLSHTEVLFVQDLTDE
Regarding B1, the binding entry in assay [1] is given as “no binding”; in assay [2], “binds”.

B2: staufen-2 (protein, UniProt Q9NUL3 1-570)
chain: MANPKEKTAMCLVNELARFNRVQPQYKLLNERGPAHSKMFSVQLSLGEQTWESEGSSIKKAQQAVANKALTESTLPKPVQKPPKSNVNNNPGSITPTVELNGLAMKRGEPAIYRPLDPKPFPNYRANYNFRGMYNQRYHCPVPKIFYVQLTVGNNEFFGEGKTRQAARHNAAMKALQALQNEPIPERSPQNGESGKDVDDDKDANKSEISLVFEIALKRNMPVSFEVIKESGPPHMKSFVTRVSVGEFSAEGEGNSKKLSKKRAATTVLQELKKLPPLPVVEKPKLFFKKRPKTIVKAGPEYGQGMNPISRLAQIQQAKKEKEPDYVLLSERGMPRRREFVMQVKVGNEVATGTGPNKKIAKKNAAEAMLLQLGYKASTNLQDQLEKTGENKGWSGPKPGFPEPTNNTPKGILHLSPDVYQEMEASRHKVISGTTLGYLSPKDMNQPSSSFFSISPTSNSSATIARELLMNGTSSTAEAIGLKGSSPTPPCSPVQPSKQLEYLARIQGFQAALSALKQFSEQGLDPIDGAMNIEKGSLEKQAKHLREKADNNQAPPGSIAQDCKKSNSAV
For the molecule B2, the binding result in assay [2] was “binds”.

B3: G3BP2 (protein, UniProt Q9UN86 1-482)
chain: MVMEKPSPLLVGREFVRQYYTLLNKAPEYLHRFYGRNSSYVHGGVDASGKPQEAVYGQNDIHHKVLSLNFSECHTKIRHVDAHATLSDGVVVQVMGLLSNSGQPERKFMQTFVLAPEGSVPNKFYVHNDMFRYEDEVFGDSEPELDEESEDEVEEEQEERQPSPEPVQENANSGYYEAHPVTNGIEEPLEESSHEPEPEPESETKTEELKPQVEEKNLEELEEKSTTPPPAEPVSLPQEPPKAFSWASVTSKNLPPSGTVSSSGIPPHVKAPVSQPRVEAKPEVQSQPPRVREQRPRERPGFPPRGPRPGRGDMEQNDSDNRRIIRYPDSHQLFVGNLPHDIDENELKEFFMSFGNVVELRINTKGVGGKLPNFGFVVFDDSEPVQRILIAKPIMFRGEVRLNVEEKKTRAARERETRGGGDDRRDIRRNDRGPGGPRGIVGGGMMRDRDGRGPPPRGGMAQKLGSGRGTGQMEGRFTGQRR
Regarding B3, the binding entry in assay [3] is listed as “binds”.
